Assay results from paper PMC10111864.
No constants are given. Whether binding was seen depends on the method and setting. In cells and extracts the contact can be indirect. Some entries that bind do so weakly or less than the wild type. Where a sequence is shown, tags or fusion partners need not be part of it. One block for each binder: values may come before it.

What was measured:
[1] = target: T1, KIF1C:mCherry (endogenous KIF1C tagged at the C terminus with mCherry) (mouse (endogenous in YUMM1.7)) (UniProt O35071); experiment: co-IP; α-mCherry antibody (10 μg, Invitrogen 16D7), protein G Dynabeads, lysates of KIF1C:mCherry-tagged YUMM1.7 cell lines (+/+ and ΔGA1,2), Western blot; washes 50 mM Tris pH 7.4, 150 mM NaCl, 0.02% NP-40
T1 sequence: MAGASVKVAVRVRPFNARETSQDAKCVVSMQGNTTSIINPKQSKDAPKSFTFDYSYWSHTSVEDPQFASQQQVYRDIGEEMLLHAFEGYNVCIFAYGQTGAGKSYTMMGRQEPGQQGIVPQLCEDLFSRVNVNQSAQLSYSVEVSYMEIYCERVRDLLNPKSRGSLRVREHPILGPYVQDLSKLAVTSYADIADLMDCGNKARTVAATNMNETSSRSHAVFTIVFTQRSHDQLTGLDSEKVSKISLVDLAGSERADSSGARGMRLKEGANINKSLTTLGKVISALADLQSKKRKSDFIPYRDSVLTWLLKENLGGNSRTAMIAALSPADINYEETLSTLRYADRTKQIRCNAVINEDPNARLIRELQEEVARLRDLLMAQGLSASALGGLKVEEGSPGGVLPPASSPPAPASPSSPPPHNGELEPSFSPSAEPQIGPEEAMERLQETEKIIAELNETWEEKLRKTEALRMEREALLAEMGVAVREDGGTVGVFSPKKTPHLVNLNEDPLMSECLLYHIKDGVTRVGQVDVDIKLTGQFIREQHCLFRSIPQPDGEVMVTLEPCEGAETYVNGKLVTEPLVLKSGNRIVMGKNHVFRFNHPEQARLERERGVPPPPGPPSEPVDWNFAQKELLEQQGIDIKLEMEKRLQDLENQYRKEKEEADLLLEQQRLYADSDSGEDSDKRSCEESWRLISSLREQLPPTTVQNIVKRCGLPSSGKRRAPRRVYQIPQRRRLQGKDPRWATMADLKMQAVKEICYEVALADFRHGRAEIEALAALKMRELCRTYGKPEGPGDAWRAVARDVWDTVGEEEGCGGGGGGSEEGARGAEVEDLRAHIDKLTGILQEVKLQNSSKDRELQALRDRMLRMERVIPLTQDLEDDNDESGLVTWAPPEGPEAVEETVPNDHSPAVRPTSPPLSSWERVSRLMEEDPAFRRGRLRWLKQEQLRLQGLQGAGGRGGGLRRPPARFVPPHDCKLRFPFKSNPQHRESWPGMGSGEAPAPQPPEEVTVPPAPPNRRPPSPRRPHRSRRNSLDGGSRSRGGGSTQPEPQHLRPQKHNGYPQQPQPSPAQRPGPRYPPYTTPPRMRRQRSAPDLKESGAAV

[2] = target: T2, KIF1C (endogenous, untagged) (mouse (endogenous in YUMM1.7)) (UniProt O35071); experiment: co-IP; α-KIF1C antibody (2 μg), protein G Dynabeads, lysates of untagged Kif1c+/+ and Kif1c ΔGA1,2 YUMM1.7 cells (3-4 mg total protein), Western blot; washes 50 mM Tris pH 7.4, 150 mM NaCl, 0.02% NP-40
T2 sequence: T1 sequence

[3] = target: T1, KIF1C:mCherry (endogenous KIF1C tagged at the C terminus with mCherry) (mouse (endogenous in YUMM1.7)); experiment: co-IP; α-mCherry antibody, protein G Dynabeads, lysate of KIF1C:mCherry +/+ YUMM1.7 cells only (Kif1c mRNA properly localized), Western blot
[4] = target: T2, KIF1C (endogenous, untagged) (mouse (endogenous in YUMM1.7)); experiment: co-IP; α-KIF1C antibody, protein G Dynabeads, lysate of untagged Kif1c+/+ YUMM1.7 cells only (Kif1c mRNA properly localized), Western blot

binding [1]: binds
B2: KIF1C (endogenous, untagged) (protein, UniProt O35071 1-1100)
chain: T1 sequence

binding [1]: binds
binding [2]: binds
binding [3]: binds weakly
binding [4]: binds weakly
B3: ATL3 (protein, UniProt Q91YH5 1-541)
chain: MLSPQRTAAVASRGAGDAMENGKPGPVQVVLVHKEQHSFELEERALASVLLQDHIRDLDVVVVSVAGAFRKGKSFILDFMLRYLYSQKEGGHSDWLGDPEEPLTGFSWRGGSDPETTGIQIWSEVFTVKKPCGKKVAVVLMDTQGAFDSQSTVKDCATIFALSTMTSSVQIYNLSQNIQEDDLQQLQLFTEYGRLAMDEIFQKPFQTLMFLIRDWSFPYEYNYGLQGGMAFLDKRLHVKEHQHEEIQNVRNHIHSCFSDVTCFLLPHPGLQVATSPNFDGKLKDIASEFKEQLQALIPYVLNPSKLMEKEINGSKVTCRGLLEYFKAYIKIYQGEDLPHPKSMLQATAEANNLAAAASAKDIYYNNMEEICGGEKPYLSPDILEEKHLEFKQLALDHFKKIKKMGGKDFSFRYQQELEEEIKELYENFCKHNGSKNVFSTFRTPAVLFTGIAALYIASGFTGFIGLEVVAQLFNCMVGLLLIALLTWGYIRYSGQYRELGGAIDSGAAYVLEQASSHIGNSTQAAVRDAVVGRPPADKKSQ

Further lines, the binder ahead of its results:

B1: RAI14 (protein, UniProt Q9EP71 1-979)
chain: MKSLKAKFRKSDTNEWNKNDDRLLQAVENGDAEKVASLLGKKGASATKHDSEGKTAFHLAAAKGHVECLKVMVTHGVDVTAQDSSGHSALHVAAKNGHPECIRKLLQYKSPAENIDNSGKTALHYAAAQGCLQAVQLLCEHKSPINLKDLDGNIPLLVAVQNGHSEACHFLLDHGADVNSRDKNGRTALMLACETGSSNTVDALIKKGADLSLVDSLGHNALHYSKLSENAGIQNLLLSKISQDADLKTPTKPKQHDQVSKISSERSGTPKKRKAPPPPISPTQLSDVSSPRSITSTPLSGKESVFFAEAPFKAEISSIQENKDRLSDSTAGADSLLDISSEADQQDLLVLLQAKVASLTLHNKELQDKLQAKSPKDKEAEADLSFQSFHSTQTDLAPSPGKASDIPSSDAKSSPPVEHPAGTSTTDNDVIIRQLQDSLHDLQKRLESSEAEKKQLQDELQSQRTDTLCLNNTEISENGSDLSQKLKETQSKYEEAMKEVLSVQKQMKLGLLSQESADGYSHLREAPADEDIDTLKQDLQKAVEESARNKERVRELETKLAEKEQAEATKPPAEACEELRSSYCSVIENMNKEKAFLFEKYQQAQEEIMKLKDTLKSQMPQEAPDDSGDMKEAMNRMIDELNKQVSELSQLYREAQAELEDYRKRKSLEDAAEYIHKAEHERLMHVSNLSRAKSEEALSEMKSQYSKVLNELTQLKQLVDAHKENSVSITEHLQVITTLRTTAKEMEEKISALTGHLANKEAEVAKLEKQLAEEKAAVSDAMVPKSSYEKLQASLESEVNALATKLKESVREREKAHSEVAQVRSEVSQARREKDNIQTLLKAKEQEVTALVQKFQRAQEELAGMRRCSETSSKLEEDKDEKINEMTREVLKLKEALNSLSQLSYSTSSSKRQSQQLDLLQQQVKQLQNQLAECKKHHQEVISVYRMHLLYAVQGQMDEDVQKVLKQILTMCKNQSQKK
binding [1]: binds
binding [2]: binds

B4: FLII (protein, UniProt Q9JJ28 1-1271)
chain: MEATGVLPFVRGVDLSGNDFKGGYFPENVKAMTSLRWLKLNRTGLCYLPEELAALQKLEHLSVSHNHLTTLHGELSSLPSLRAIVARANSLKNSGVPDDIFKLDDLSVLDLSHNQLTECPRELENAKNMLVLNLSHNGIDSIPNQLFINLTDLLYLDLSENRLESLPPQMRRLVHLQTLVLNGNPLLHAQLRQLPAMMALQTLHLRNTQRTQSNLPTSLEGLSNLSDVDLSCNDLTRVPECLYTLPSLRRLNLSSNQIAELSLCIDQWVHLETLNLSRNQLTSLPSAICKLTKLKKLYLNSNKLDFDGLPSGIGKLTSLEEFMAANNNLELIPESLCRCPKLKKLVLNKNRLVTLPEAIHFLTEIQVLDVRENPSLVMPPKPADRTAEWYNIDFSLQNQLRLAGASPATVAAAAAVGSGSKDPLARKMRLRRRKDSAQDVQAKQVLKGMSDVAQEKNKNQEESIDARAPGGKVRRWDQGLEKPRLDYSEFFTEDVGQLPGLTIWQIENFVPVLVEEAFHGKFYEADCYIVLKTFLDDSGSLNWEIYYWIGGEATLDKKACSAIHAVNLRNYLGAECRTVREEMGDESEEFLQVFDNDISYIEGGTASGFYTVEDTHYVTRMYRVYGKKNIKLEPVPLKGSSLDPRFVFLLDQGLDIYVWRGAQATLSNTTKARLFAEKINKNERKGKAEITLLVQGQEPPGFWDVLGGEPSEIKNHVPDDFWPPQPKLYKVGLGLGYLELPQINYKLSVEHKKRPKVELMPGMRLLQSLLDTRCVYILDCWSDVFIWLGRKSPRLVRAAALKLGQELCGMLHRPRHTVVSRSLEGTEAQVFKAKFKNWDDVLTVDYTRNAEAVLQGQGLSGKVKRDTEKTDQMKADLTALFLPRQPPMPLAEAEQLMEEWNEDLDGMEGFVLEGRKFTRLPEEEFGHFYTQDCYVFLCRYWVPVEYEEEEKTEDKEGKASAEAREGEEAAAEAEEKQPEEDFQCIVYFWQGREASNMGWLTFTFSLQKKFESLFPGKLEVVRMTQQQENPKFLSHFKRKFIIHRGKRKVTQGTLQPTLYQIRTNGSALCTRCIQINTDSSLLNSEFCFILKVPFESEDNQGIVYAWVGRASDPDEAKLAEDILNTMFDASYSKQVINEGEEPENFFWVGIGAQKPYDDDAEYMKHTRLFRCSNEKGYFAVTEKCSDFCQDDLADDDIMLLDNGQEVYMWVGTQTSQVEIKLSLKACQVYIQHTRSKEHERPRRLRLVRKGNEQRAFTRCFHAWSTFRQAPA
binding [1]: binds
binding [2]: binds
